# According to the supplement of paper PMC7666118:
# Sequences of proteins named here, by UniProt entry; tags and fusion partners are left off.
# UniProt P54709, whole entry: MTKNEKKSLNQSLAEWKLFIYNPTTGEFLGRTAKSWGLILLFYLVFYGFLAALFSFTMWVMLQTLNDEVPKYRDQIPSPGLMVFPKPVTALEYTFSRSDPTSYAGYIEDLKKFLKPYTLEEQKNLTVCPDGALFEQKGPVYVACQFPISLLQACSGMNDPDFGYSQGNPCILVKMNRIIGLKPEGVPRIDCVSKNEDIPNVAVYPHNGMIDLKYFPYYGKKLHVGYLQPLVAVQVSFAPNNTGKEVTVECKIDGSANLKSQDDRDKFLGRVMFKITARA
# The other results are listed elsewhere or left out.
# Target: ATP1B3 (UniProt P54709)
# Experiment: dose-dependent thermal stabilisation call (2D-TPP, DLPTP, 10% FDR) (binary (1 = stabilised)); higher = stabilised by the compound
# Settings: system: HL-60 intact cells; concentration range 0.04-10 µM
# Procedure: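 2D thermal proteome profiling in intact HL-60 cells treated with BRD-3811 (0, 0.04, 0.29, 2, 10 uM) for 90 min at 37 C, then heated 3 min at one of 12 temperatures (42-63.9 C). Soluble protein was quantified by TMT10 MS. The value is the DLPTP call of the paper: dose-dependent thermal stabilisation over all temperatures at 10% FDR (F-test of a dose-response against a flat model); one experiment, one call per tested protein.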
row,SMILES,dose-dependent thermal stabilisation call
1,COc1ccc(Cn2ccc3cc(C)c(C(=O)NO)cc32)cc1,inactive: 0
